Data set [1] can be described thus: Fmoc solid-phase peptide synthesis; cellulose filter paper; Pentafluorophenyl esters with HOBt; HOBt/DICD in filter method. The settings on record: whole synthesis, scale 10 μMol.
A short description of data set [2]: general procedure: Fmoc solid-phase peptide synthesis; Fmoc-Val-NovaSyn-PA 500 (0.37 mMol/g) for hPTH(1-35); Fmoc-Ala-NovaSyn-PA 500 (0.35 mMol/g) for hPTH(1-36); cellulose fi; Pentafluorophenyl esters with HOBt; HOBt/DICD in filter method. To be noted: whole synthesis, area percent, scale of the general procedure 10 μMol (filter method).
A short description of data set [3]: Fmoc solid-phase peptide synthesis; Fmoc-Val-NovaSyn-PA 500 (0.37 mMol/g) for hPTH(1-35); Fmoc-Ala-NovaSyn-PA 500 (0.35 mMol/g) for hPTH(1-36); cellulose fi; Pentafluorophenyl esters with HOBt; HOBt/DICD in filter method. To be noted: whole synthesis, scale of the general procedure 10 μMol (filter method).

With “Ser-Val-Ser-Glu-Ile-Gln-Leu-Met-His-Asn-Leu-Gly-Lys-His-Leu-Asn-Ser-Met-Glu-Arg-Val-Glu-Trp-Leu-Arg-Lys-Lys-Leu-Gln-Asp-Val-His-Asn-Phe-Val (SVSEIQLMHNLGKHLNSMERVEWLRKKLQDVHNFV)”, in data set [1], the crude mass was 43 mg. The “crude HPLC purity” value in data set [2] stood at 35%. The crude yield in data set [3] turned out to be 71%.

As to “Ser-Val-Ser-Glu-Ile-Gln-Leu-Met-His-Asn-Leu-Gly-Lys-His-Leu-Asn-Ser-Met-Glu-Arg-Val-Glu-Trp-Leu-Arg-Lys-Lys-Leu-Gln-Asp-Val-His-Asn-Phe-Val-Ala (SVSEIQLMHNLGKHLNSMERVEWLRKKLQDVHNFVA)”, the crude mass in data set [1] is on record as 34 mg. This substance yielded a crude yield in data set [3] of 67%.

(Values after patent US5783558A (Boehringer Mannheim GmbH, priority 1992, dated 1998).)
